Literature values, collected in US5683715A, “Taxane-containing phosphatidylcholine liposomes” (The Liposome Company, Inc., priority 1995, dated 1997).

## CC(=O)O[C@H]1C(=O)[C@@]2(C)[C@H]([C@H](OC(=O)c3ccccc3)[C@]3(O)C[C@H](OC(=O)[C@H](O)[C@@H](NC(=O)c4ccccc4)c4ccccc4)C(C)=C1C3(C)C)[C@]1(OC(C)=O)CO[C@@H]1C[C@@H]2O [Paclitaxel]
  Solubility in water and aqueous solvents: highly insoluble
